According to PubChem BioAssay AID504834 (National Center for Advancing Translational Sciences (NCATS), 2011):
Out of some 320,000 compounds screened, about 22,000 (6.9%) were called active. Inconclusive results, whose numbers are uncertain, are shown with a selection of clear calls. Calls follow the shape of the dose curve; as a rule, active = well fitted inhibition curve with a large enough effect; inconclusive = small, poorly fitted or top-dose-only effect, or another doubt; inactive = no such curve, though single readings can be large or run the other way. A potency beside an inconclusive call is a rough fit, not a confirmed value.

Assay: Primary qHTS for delayed death inhibitors of the malarial parasite plastid, 96 hour incubation
Details: P. falciparum luciferase reporter growth; series mostly up to 28.7 µM
Method in brief: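 Erythrocytes infected with luciferase-expressing P. falciparum were dispensed at 2% hematocrit and 0.05% parasitemia (final), then incubated with compounds 96 hours at 37 C in 5% CO2. Luminescence after detection reagent addition reported growth.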
Potency is read from the fitted curve at half-maximal effect.

SMILES | Potency
Cn1c(Cc2ccccc2)nnc1SCc1cc(=O)n2ccsc2n1 | inactive
COc1ccc(Nc2ccc(S(=O)(=O)N3CCCCC3)cc2[N+](=O)[O-])cc1Cl | active: 13.1 µM
O=C(COC(=O)CC1Sc2ccccc2NC1=O)NCc1ccccc1 (configuration not stated) | inconclusive: 7.38 µM [inhibitor, partial curve]
CCOC(=O)C1CCN(C(=O)CCc2ccc(S(=O)(=O)NC(C)C)cc2)CC1 | inconclusive: 18.5 µM [inhibitor, single point]
Cc1ccc(S(=O)(=O)NN=C2CCC(C(C)(C)C)CC2)cc1[N+](=O)[O-] (configuration not stated) | inactive
CCC/C(=N\NC(=O)C1CCCC1)c1ccccc1 | inconclusive: 11.7 µM [inhibitor, single point]
O=C1CN(C(=O)CSc2nc3ccccc3c(=O)n2CC2CCCO2)c2ccccc2N1 (configuration not stated) | inconclusive: 9.28 µM [inhibitor, partial curve, poor fit]
O=C(c1ccc(=O)oc1)N1CCOCC1 | inconclusive: 11.7 µM [inhibitor, single point]
COc1ccc(NC(=O)CSc2nccn2-c2cccc(OC)c2)cc1 | inconclusive: 9.28 µM [inhibitor, partial curve, poor fit]
CC(=O)c1c(C)[nH]c(C(=O)Nc2cccc(S(=O)(=O)N(C)c3ccccc3)c2)c1C | inconclusive: 3.29 µM [inhibitor, full curve, poor fit]
CCN(CC)C(=O)CSc1nc2nc(C)cc(C)c2c(=O)[nH]1 | inactive
CCc1noc(C)c1C(=O)Nc1cc(Cl)ccc1N1CCCC1 | inconclusive: 18.5 µM [inhibitor, single point]
CC[C@@]1(O)C(=O)OCc2c1cc1n(c2=O)Cc2cc3c(N)cccc3nc2-1 | active: 1.17 µM
Cc1cccc(C)c1NC(=O)CN(C)C(=O)C1CCN(c2ncnc3sc(C)c(C)c23)CC1 | active: 7.38 µM
Cc1cccnc1NC(=O)Cn1c(=O)oc2ccccc21 | inconclusive: 20.8 µM [inhibitor, single point]
c1cc2c(cc1-c1[nH]ncc1CN1CC3C[C@@H]4CC1C[C@H](C3)C4)OCO2 | inconclusive: 18.5 µM [inhibitor, single point]
CN1CCN(c2ccc(C(=O)c3cn(-c4ccc(F)c(Cl)c4)nn3)cc2)CC1 | inconclusive: 18.5 µM [inhibitor, single point]
CN(Cc1ccc(C(C)(C)C)cc1)C(=O)C1CCN(C(=O)Nc2ccccc2)CC1 | active: 13.1 µM
Cc1ccc(S(=O)(=O)N2C(=O)CCC2C(N)=O)cc1 (configuration not stated) | inconclusive: 18.5 µM [inhibitor, single point]
Cc1ccnc(-n2c(-c3ccccc3)nc3ccccc3c2=O)c1 | inactive
CCOc1cccc(C(=O)Nc2cccc(-c3nnc(-c4ccccc4)o3)c2)c1 | inactive
CCOC(=O)c1c(NC(=O)CN2C(=O)NC3(CCC(C)CC3)C2=O)sc(C(=O)N(C)C)c1C (configuration not stated) | inconclusive: 11.7 µM [inhibitor, partial curve]
COc1cc(C(=O)NC(=S)Nc2ccccc2N2CCOCC2)cc(OC)c1OC | inactive

SMILES | Potency
CC(Nc1nc(C(F)(F)F)nc2ccccc12)c1cccs1 (configuration not stated) | inconclusive: 10.4 µM [inhibitor, single point]
Cc1nc(C)c(C(=O)Nc2cccc(Cl)c2)o1 | inconclusive: 5.22 µM [inhibitor, partial curve]
CCC(C)NC(=O)Nc1ccc(C)cc1C (configuration not stated) | inactive
CC(=O)c1ccccc1NC(=O)COc1ccc(N(C)S(=O)(=O)c2ccc(C)c(C)c2)cc1 | active: 11.7 µM
CCOC(=O)c1cnn(CCOC(=O)c2ccc(F)cc2)c1NC(=O)c1ccc(F)cc1 | inactive
CC(C)c1ccc(CN2CCN(S(=O)(=O)c3ccc(Cl)s3)CC2)cc1 | inconclusive: 18.5 µM [inhibitor, single point]
CCC(C)NC(=O)c1oc2ccc(S(=O)(=O)N3CCC4(CC3)OCCO4)cc2c1C (configuration not stated) | inconclusive: 4.15 µM [inhibitor, partial curve]
Cc1ccccc1C(=O)N1CCC(C(=O)Nc2ccc(S(=O)(=O)N3CCOCC3)cc2)CC1 | inconclusive: 14.7 µM [inhibitor, single point]
CCN1CCN(c2cc(C)c3cc(NC(=O)Cc4ccccc4OC)ccc3n2)CC1 | inconclusive: 18.5 µM [inhibitor, single point]
COc1cc(C(=O)/C=C/Nc2ccc(NC(C)=O)cc2)cc(OC)c1OC | inconclusive: 16.5 µM [inhibitor, single point]
CC(C)(C)c1ccc(C2C3=C(CCCC3=O)NC3=C2C(=O)c2ccccc23)cc1 (configuration not stated) | inconclusive: 2.08 µM [inhibitor, full curve, poor fit]
COc1ccc(C)cc1NCc1cccc(OC)c1OC | inconclusive: 4.65 µM [inhibitor, partial curve]
COc1ccc(NC(=O)C2CC(=O)n3ncnc3N2)cc1 (configuration not stated) | inconclusive: 1.31 µM [inhibitor, partial curve, poor fit]
COc1cc(CCC(=O)Nc2nnc(-c3cccnc3)s2)cc(OC)c1OC | inconclusive: 0.117 µM [inhibitor, full curve, poor fit]
COC(=O)C1C(=O)CC(C)(O)C(C(=O)OC)C1/C=C/c1ccccc1 (configuration not stated) | inconclusive: 18.5 µM [inhibitor, single point]
Cc1cc(NC(=O)c2cc(Cl)ccc2Cl)no1 | inconclusive: 3.7 µM [inhibitor, single point]
O=C(NC1CCS(=O)(=O)C1)c1c(NC(=O)C2COc3ccccc3O2)sc2c1CCCC2 (configuration not stated) | inactive
O=C(c1cc(=O)c2ccccc2o1)N1CCCc2ccccc21 | inconclusive: 0.294 µM [inhibitor, partial curve, poor fit]
O=C(NNC(=O)c1c(O)c2ccccc2[nH]c1=O)c1ccccc1 | inconclusive: 1.17 µM [inhibitor, partial curve, poor fit]
CCOC(=O)c1sc(=NC(=O)c2ccc(S(=O)(=O)N3CC(C)OC(C)C3)cc2)n(C)c1C (configuration not stated) | inconclusive: 18.5 µM [inhibitor, single point]
CC(=O)Nc1ccc(S(=O)(=O)Nc2ccc(Cl)cn2)cc1 | inconclusive: 18.5 µM [inhibitor, single point]
COc1ccccc1C1CCN(Cc2c(C)[nH]c3ccccc23)CC1 | inconclusive: 18.5 µM [inhibitor, single point]
O=C(Cc1ccc(Cl)cc1)NCC(=O)N1CCCCC1 | inactive

SMILES | Potency
CN(C)CCNc1nc2c(c(=O)[nH]c(=O)n2C)n1CC(O)COc1ccc(Cl)cc1Cl (configuration not stated) | inconclusive: 18.5 µM [inhibitor, single point]
CCOC(=O)/C(C#N)=C/c1cn(CCOc2ccc(OC)cc2)c2ccccc12 | inactive
Cc1ccc(C(=O)N2CC(=O)Nc3ccc(F)cc3C2c2ccccc2)cc1 (configuration not stated) | inconclusive: 16.5 µM [inhibitor, single point]
COCCOC(=O)C1=C(C)N(c2ccccc2)C(=S)NC1c1ccccc1C(F)(F)F (configuration not stated) | inconclusive: 18.5 µM [inhibitor, partial curve, poor fit]
Cc1cccc(-n2nc([N+](=O)[O-])c(=NC3CCN(Cc4ccccc4)CC3)n2O)c1 | inconclusive: 18.5 µM [inhibitor, single point]
COc1ccc(C2Nc3ccccc3C(=O)N2c2ccccc2)cc1CN1CCOCC1 (configuration not stated) | inconclusive: 18.5 µM [inhibitor, partial curve, poor fit]
CC(C)OCCCNC(=O)CNC(=O)c1cccs1 | inconclusive: 4.65 µM [inhibitor, partial curve, poor fit]
CCOc1ccc(N=C2C(=O)N(CN3CCOCC3)c3ccccc32)cc1 | active: 13.1 µM
COc1ccccc1CC(=O)Nc1ccc(-c2nnc(-c3ccco3)o2)cc1 | inactive
CC(C)C(c1nnnn1CCc1ccccc1)N1CCSCC1 (configuration not stated) | inconclusive: 11.7 µM [inhibitor, single point]
CCOC(=O)C1CCN(S(=O)(=O)c2cn(C)cn2)CC1 | inactive
CCN(CC)CC(=O)N1N=C(c2cccs2)CC1c1ccco1 (configuration not stated) | inconclusive: 0.0029 µM [inhibitor, full curve, poor fit]
COc1cccc(OC)c1OCCCNC1CCCC1 | inconclusive: 11.7 µM [inhibitor, partial curve, poor fit]
CC(C)(C)c1ccc(-c2nnc(SCC(=O)Nc3sc4c(c3C#N)CCCC4)o2)cc1 | inactive
COc1cccc(CNC(=O)c2cc(S(=O)(=O)N3CCCC3)cn2C)c1 | active: 11.7 µM
Cc1cccc(NC(=O)COC(=O)c2cc(C)n(C3CC3)c2C)c1 | inconclusive: 18.5 µM [inhibitor, single point]
Cc1ccc(S(=O)(=O)N(CC(=O)NCC2CCCO2)Cc2cccc(C)c2)cc1 (configuration not stated) | inactive
CCOC(=O)C1(CCOc2ccccc2)CCN(CCCn2cccn2)CC1 | inconclusive: 13.1 µM [inhibitor, partial curve, poor fit]
CC1CCCCN1S(=O)(=O)c1ccc(N(C(=O)c2cnccn2)C(C(=O)NC2CCCC2)c2cccs2)cc1 (configuration not stated) | inconclusive: 16.5 µM [inhibitor, single point]
COc1ccccc1NC(=O)C(C)Sc1nc2ccccc2c(=O)n1CC1CCCO1 (configuration not stated) | inconclusive: 10.4 µM [inhibitor, single point]
COc1ccc(/C=N/Nc2nc(-c3ccc(C)cc3)c(C#N)c(=O)[nH]2)cc1 | inconclusive: 10.4 µM [inhibitor, single point]

Structural class, the compounds so far with a CF3 group
SMILES | Potency
CC(Nc1nc(C(F)(F)F)nc2ccccc12)c1cccs1 (configuration not stated) | inconclusive: 10.4 µM [inhibitor, single point]
COCCOC(=O)C1=C(C)N(c2ccccc2)C(=S)NC1c1ccccc1C(F)(F)F (configuration not stated) | inconclusive: 18.5 µM [inhibitor, partial curve, poor fit]
